Measurements taken from patent US20260297131A1, “COMPOSITIONS AND METHODS FOR PEPTIDE-BASED MODULATORS OF HUMAN PAPILLOMAVIRUS ONCOPROTEIN E6” (priority 2023, published 2026).
At least one peptide structure holds a part that was inferred or is arguable (an end, a ring closure or a residue). Square brackets hold non-standard residues; d marks the D form. Side chains are listed from the residue outwards. Peptide text beside a SMILES is read from it. * marks the point of attachment. Acetyl(9-fluorenyl) = O=C(CC1c2ccccc2-c2ccccc21)*; Anthracene1carbonyl = O=C(c1cccc2cc3ccccc3cc12)*; Biotin = O=C1N[C@H]2[C@H](CS[C@H]2CCCCC(=O)*)N1; PEG4 = NCCOCCOCCOCCOCCC(=O)O; Dha = C=C(N)C(=O)O

What was measured:
[1] = tested on: CaSki lysate proteins; conditions: 5 μM, 2 mg lysate, 4° C. overnight
[2] = tested on: HT1080 lysate proteins; conditions: 5 μM, 2 mg lysate, 4° C. overnight

With `C=C(NC(=O)[C@H](C)NC(=O)[C@H](C)NC(=O)[C@H](CCC(=O)O)NC(=O)[C@H](CCC(N)=O)NC(=O)[C@H](C)NC(=O)[C@@H](NC(=O)[C@H](CC(C)C)NC(=O)[C@H](CCC(=O)O)NC(=O)[C@H](C)NC(=O)[C@H](CO)NC(=O)[C@H](CCC(N)=O)NC(=O)[C@@H]1CCCN1C(=O)[C@@H](NC(=O)[C@H](CCCCNC(=O)CCOCCOCCOCCOCCNC(=O)CCCC[C@@H]1SC[C@@H]2NC(=O)N[C@@H]21)NC(=O)CC1c2ccccc2-c2ccccc21)[C@@H](C)CC)[C@@H](C)O)C(=O)N[C@@H](CCCNC(=N)N)C(=O)N[C@@H](CCCNC(=N)N)C(=O)N[C@@H](CCCCN)C(=O)N[C@@H](CCCCN)C(=O)N[C@@H](CCCCNC(=O)c1cccc2cc3ccccc3cc12)C(N)=O` [13-3L3A-biotin] ({Acetyl(9-fluorenyl)}-K([PEG4-Biotin])IPQSAELTAQEAA[Dha]RRKKK(Anthracene1carbonyl)-NH2) the “protein enrichment in pull-down, CaSki” value [1] was “only modest nonspecific enrichment” and the “protein enrichment in pull-down, HT1080” value [2] was “only modest nonspecific enrichment”.
